Assay results published in PubChem BioAssay AID540256 (National Center for Advancing Translational Sciences (NCATS), 2011).
Screen size: about 300,000 compounds; about 3,700 (1.2%) were called active. Inconclusive means that the source gave no clear call. Such entries were picked first, then a sample of the others. Calls come from the whole dose curve; tested in HEK293 cells. Potencies beside an inconclusive call are fits to weak or partial responses and may not hold up.

Test: qHTS for Inhibitors of binding or entry into cells for Lassa Virus; note: nearly all actives have a fitted effect of over 50% in size
Details: Lassa virus pseudotype entry inhibition, cell reporter; activity change, negative = inhibition: at 37.9 µM (top of the series) unless noted
% is set by controls: 0 for no effect and ±100 for the full control effect; potency is the fitted concentration of half-maximal effect.

Row | SMILES | Potency | activity change, negative = inhibition
1 | CCSc1nc2c(c(-c3ccc(C)o3)c1C#N)CCCC2 | inactive | –
2 | COc1ccc(CN2CCN(C(=O)CCC(=O)c3ccc(C)s3)CC2)cc1OC | inactive | –
3 | Cc1cc(-c2nc(C)c(C(=O)NNS(=O)(=O)c3ccc(Cl)cc3Cl)s2)no1 | inactive | –
4 | COC(=O)C1CCN(C(=O)c2sc3nc(-c4ccc(F)cc4)cn3c2C)CC1 | inconclusive: 0.0058 µM [inhibitor, full curve, poor fit] | –
5 | Cc1ccc(NC(=O)CSc2nnc(-c3cc(C)[nH]n3)n2N)c(C)c1 | inconclusive: 35.5 µM [activator, single point] | –
6 | CCOc1ccc(N2C(=O)C3C4C=CC(CC4)C3C2=O)c([N+](=O)[O-])c1 (centres undefined) | inactive | –
7 | NC(=O)C1(N2CCCCC2)CCN(C(=O)Nc2ccc(F)cc2)CC1 | inconclusive: 3.16 µM [inhibitor, partial curve, poor fit] | –
8 | O=C(Cc1ccc(Br)cc1)N1CCN(Cc2ccccc2)CC1 | inconclusive: 28.2 µM [inhibitor, single point] | –
9 | COc1ccc(CNC(=O)Nc2cccs2)cc1OC | inactive | –
10 | O=C(Cn1cnnn1)NCc1ccccc1 | inactive | –
11 | O=C(Nc1c(-c2ccccc2)nc2ccccn12)c1cccc(F)c1 | inactive | –
12 | Cc1ccc(NC(=O)CCCc2nnc3n(C)c(=O)c4sccc4n23)cc1F | inconclusive: 3.98 µM [inhibitor, single point] | –
13 | CC(=O)Nc1ccc(S(=O)(=O)Nc2nc3ccccc3nc2N2CCc3ccccc3C2)cc1 | inconclusive: 10 µM [inhibitor, partial curve] | –
14 | O=C(C1CCCN(S(=O)(=O)c2cccc3nsnc23)C1)N1CC=C(c2ccccc2)CC1 (centres undefined) | inconclusive: 35.5 µM [inhibitor, single point] | –
15 | Cc1onc(-c2ccccc2Cl)c1C(=O)Nc1ccc(N2CCOCC2)cc1 | inconclusive: 35.5 µM [inhibitor, single point] | –
16 | O=C(CN1CCN(Cc2ccccc2)CC1)N/N=C/C=C/c1ccccc1[N+](=O)[O-] | inactive | –
17 | C=CCNc1nc(-c2cccc(OC)c2O)nc2ccccc12 | inactive | –
18 | COc1ccc2[nH]cc(C(=O)CN(C)CCc3ccc(OC)c(OC)c3)c2c1 | inactive | –
19 | CCCCOc1ccc(Br)cc1CSC(=N)N | inconclusive: 10 µM [inhibitor, partial curve, poor fit] | –
20 | O=C(CN1CCCC1c1cccs1)Nc1cc(S(=O)(=O)N2CCCC2)ccc1Cl (centres undefined) | inconclusive: 7.08 µM [inhibitor, partial curve, poor fit] | –
21 | COc1ccc2occ(C(=O)c3ccc(N=C(C)N(C)C)cc3)c2c1 | inconclusive: 5.62 µM [activator, full curve] | –
22 | CC(=O)c1cccc(NC(=O)CSc2nc(=O)n(CCN3CCOCC3)c3c2CCCC3)c1 | inactive | –
23 | O=C(N/N=C/c1ccc(F)cc1)c1cc(-c2ccco2)nc2ccccc12 | inconclusive: 5.62 µM [inhibitor, full curve] | –

Row | SMILES | Potency | activity change, negative = inhibition
24 | O=C(NCc1ccccc1)C1CCN(S(=O)(=O)c2ccc3c(c2)CCCN3C(=O)C2CCC2)CC1 | inconclusive: 14.1 µM [inhibitor, single point] | –
25 | O=C(NC1CCCCC1)Oc1cc2oc(=O)sc2cc1Cl | inactive | –
26 | CC(=O)Oc1c(C(C)C)cc(N(C(C)=O)c2ccccc2)cc1C(C)C | inconclusive: 1.26 µM [inhibitor, single point] | –
27 | COc1ccc(-c2nnc(SCC(=O)NC3CCCC3)nc2-c2ccc(OC)c(OC)c2)cc1OC | inconclusive: 6.31 µM [activator, single point] | –
28 | COc1cc(/C=N\NC(=O)c2ccc(-c3ccccc3)cc2)ccc1OCC(N)=O | inconclusive: 35.5 µM [inhibitor, single point] | –
29 | CCCc1cc(=O)[nH]c(SCC(=O)c2cc(C)n(-c3c(C)n(C)n(-c4ccccc4)c3=O)c2C)n1 | inactive | –
30 | CCOC(=O)c1c(S(=O)(=O)N2CCCC(C(=O)NCc3cccc(OC)c3)C2)c(C)n(C)c1C (centres undefined) | inconclusive: 14.1 µM [activator, single point] | –
31 | Cc1ccc(-c2cn(-c3cccc(Cl)c3)c(S(=O)(=O)CC(=O)Nc3cccc(C)c3)n2)cc1 | inconclusive: 10 µM [inhibitor, partial curve] | –
32 | Cc1cccc(Nc2nc(N)nc(CSC(=S)N3CCOCC3)n2)c1 | inconclusive: 17.8 µM [activator, single point] | –
33 | Cc1cccc(CS(=O)(=O)Cc2ccc(C(=O)NCCc3ccccc3)o2)c1 | – | inconclusive: 6.3% [activator] [at 46.1 µM]
34 | Cc1cccc(NC(=O)c2ccc(CN3CCc4ccccc4C3)cc2)c1C | inconclusive: 1.26 µM [inhibitor, partial curve, poor fit] | –
35 | Cc1ccc(C)c(NC(=O)CCC(=O)N/N=C/c2ccc[nH]2)c1 | active: 18.3 µM | –
36 | Cc1cc(C)cc(-n2ccn(CC(=O)Nc3cc(C)ccc3C)c(=O)c2=O)c1 | inactive | –
37 | Cc1cccc(N2CCN(C(=O)CCNS(=O)(=O)c3ccc4c(c3)CCC(=O)N4)CC2)c1C | active: 6.51 µM | –
38 | Fc1ccc(N2CCN(C3=Nc4cccc5cccc3c45)CC2)cc1 | inconclusive: 35.5 µM [inhibitor, single point] | –
39 | Cc1ccc(/C=C2/SC(=Nc3ccc(F)cc3)NC2=O)s1 | inconclusive: 6.31 µM [inhibitor, partial curve, poor fit] | –
40 | CC(C)(C)c1cc(=O)n(-c2ccccc2)[nH]1 | inconclusive: 20.6 µM [inhibitor, single point] | –
41 | O=C(Nc1ccc2c(c1)OCO2)c1noc2c1CCCC2 | inconclusive: 7.94 µM [inhibitor, partial curve, poor fit] | –
42 | COc1cc(SC)ccc1C(=O)Nc1ccccc1C#N | inconclusive: 2.59 µM [activator, single point] | –
43 | O=C(CCNC(=O)c1ccco1)Nc1nc(-c2ccccc2)cs1 | inconclusive: 6.31 µM [activator, single point] | –
44 | COc1cc(CCC(=O)Nc2ccc(Br)c(C(F)(F)F)c2)cc(OC)c1OC | inconclusive: 7.08 µM [inhibitor, partial curve, poor fit] | –
45 | O=C(CSc1nnc(CCc2ccccc2)n1-c1ccc(Cl)cc1)c1ccccc1 | inconclusive: 35.5 µM [inhibitor, single point] | –
46 | CCOc1ccc(CCNC(=O)c2sc3ncccc3c2-n2cccc2)cc1OCC | inconclusive: 35.5 µM [inhibitor, single point] | –

A few values from the entries so far.
Value for O=C(CSc1nnc(CCc2ccccc2)n1-c1ccc(Cl)cc1)c1ccccc1 under Potency: inconclusive: 35.5 µM [inhibitor, single point]
Value for COc1cc(SC)ccc1C(=O)Nc1ccccc1C#N under Potency: inconclusive: 2.59 µM [activator, single point]
Value for Cc1ccc(/C=C2/SC(=Nc3ccc(F)cc3)NC2=O)s1 under Potency: inconclusive: 6.31 µM [inhibitor, partial curve, poor fit]

The list continues.

Row | SMILES | Potency | activity change, negative = inhibition
47 | CCOc1ccc(OCC)c(NC(=O)c2ccc(-c3ccccc3)s2)c1 | inactive | –
48 | CC(=O)C(Sc1nn(C)c(=S)s1)C(=O)Nc1ccccc1 (centres undefined) | inactive | –
49 | N[C@@H](Cc1c[nH]c2ccccc12)C(=O)O | inconclusive: 0.73 µM [inhibitor, full curve] | –
50 | c1ccc(Nc2ncnc3sc4c(c23)CCC4)cc1 | inactive | –
51 | CCNC(=O)CCn1nc(-c2ccc(C)cc2)c2ccccc2c1=O | inactive | –
52 | O=C(CCCSc1ccccc1)Nc1nc(-c2ccco2)c(-c2ccco2)s1 | inconclusive: 18.4 µM [inhibitor, single point] | –
53 | Cc1ccc(NC(=O)NCc2cccn2Cc2ccccc2)c(C)c1 | inconclusive: 31.6 µM [activator, single point] | –
54 | Cc1ccc(S(=O)(=O)N2CCC(C(=O)N3CCC[C@H]3C(=O)NC3CCS(=O)(=O)C3)CC2)cc1 (some centres undefined) | inconclusive: 29.1 µM [inhibitor, single point] | –
55 | Cc1cc(OCC(O)CN)ccc1Cl (centres undefined) | inconclusive: 15.8 µM [activator, single point] | –
56 | C1CCN(CCCNC2C3CC4CC(C3)CC2C4)C1 (centres undefined) | inconclusive: 12.6 µM [inhibitor, single point] | –
57 | O=C(Cc1cccs1)N=Nc1c(O)[nH]c2ccc(Br)cc12 | inconclusive: 3.16 µM [inhibitor, partial curve, poor fit] | –
58 | CCOC(=O)c1scc(-c2ccc(C)cc2)c1S(=O)(=O)N1CCN(c2ccccc2F)CC1 | inactive | –
59 | O=C(Cn1ncc2c3ccccc3n(Cc3ccccc3)c2c1=O)N1CCN(c2ncccn2)CC1 | inconclusive: 20.6 µM [inhibitor, single point] | –
60 | CCOc1ccc(NC(=O)c2ccc(F)c(S(=O)(=O)N(CC)Cc3ccccc3)c2)cc1 | inconclusive: 1.58 µM [inhibitor, partial curve, poor fit] | –
61 | COc1ccc2cc(C(=O)C3CCCN(Cc4cccc(C)n4)C3)ccc2c1 (centres undefined) | inconclusive: 6.31 µM [inhibitor, partial curve, poor fit] | –
62 | CC(C)(C)n1nnnc1C(c1ccc(C#N)cc1)N1CCCC2(CCCCC2)C1 (centres undefined) | inconclusive: 13 µM [inhibitor, partial curve, poor fit] | –
63 | Cc1ccc2[nH]c3c(c2c1)CCc1cn[nH]c1-3 | inconclusive: 3.66 µM [activator, full curve] | –
64 | COc1ccc(-c2nc3ccccc3n3c(-c4ccccc4)c4c(=O)n(C)c(=O)n(C)c4c23)cc1OC | inactive | –
65 | Oc1ccc(C[C@H]2NCCc3cc(O)c(O)cc32)cc1O | inconclusive: 14.1 µM [inhibitor, partial curve, poor fit] | –
66 | CCSc1nnc(Nc2ccc(C)cc2)s1 | inconclusive: 29.1 µM [inhibitor, single point] | –
67 | CS(=O)(=O)c1ccc(Cl)c(NC(=O)CCl)c1 | active: 17.8 µM | –
68 | CC(C)N(CC(=O)Nc1ccc(Cl)cc1C(F)(F)F)C(=O)CCl | inconclusive: 35.5 µM [inhibitor, single point] | –
69 | COc1ccc(/C=C2/C(=O)N(CC3CCCO3)C(=S)N2C)c(OC)c1 (centres undefined) | inconclusive: 3.26 µM [inhibitor, partial curve, poor fit] | –
